Laboratory results from patent US11592453B2, “Personalized metabolomic profiling of specialized pro-resolving mediators” (THE BRIGHAM AND WOMEN'S HOSPITAL, INC., priority 2016, dated 2023).
Some entries repeat one wording, which the source may state once for all of them.

Legend:
[1] = system: SPM production in human whole blood; assay: SPM and eicosanoid production during coagulation with heparin, eptifibatide, ADA, celecoxib or BAI; format: cell-based; conditions: coagulation with 200 mU ADA
Description: FIG. 2 illustrates regulators of SPM formation in human blood. (A to E) Freshly drawn human peripheral blood (4 ml) containing heparin (10 U/ml) was placed in polypropylene tubes (A) whereas human peripheral blood without anticoagulant was placed in silicone-coated tubes (B to E) and incubated at 37° C. for the time course of 0 to 24 hours (see Example 1, Materials and Methods). The samples were then subjected to snap-freezing for extraction and LC-MS/MS analysis. (A) Concentrations of the members of the SPM cluster (identified in FIG. 1) in samples treated without (Coag.) or with heparin (10 U/ml) during the incubation period. Data are means±SEM of three individual donors. (B) Left: Combined concentrations of the total SPM cluster, prostaglandins, and thromboxanes after 24 hours of coagulation in the presence or absence of the αIIbβ3 inhibitor eptifibatide (Eptifib.; 20 μM). Middle: Clot volumes after 24 hours of coagulation of the indicated samples. Right: Representative clot images. Data are means±SEM of three individual donors. (C) Concentrations of total SPMs and of the indicated individual SPMs after 24 hours of coagulation in the presence or absence of 200 mU ADA. Data are means±SEM of three individual donors. *P<0.05, **P<0.01 by ratio t-test. (D) Top: LC-MS/MS measurements of adenosine concentrations in whole blood at the indicated time points during coagulation in the presence or absence of ADA. **P<0.01 when compared to the zero-hour time point. Bottom: Flow cytometric analysis of the percentage of neutrophil-platelet aggregates, which were defined as being double-positive for CD16 and CD42b, in whole blood allowed to coagulate for the indicated times in the absence (Coag.) or presence of ADA. Data are means±SEM of five individual donors. *P<0.05, **P <0.01 by student's t test. For dot plots and gating, see FIG. 7B. (E) MS/MS fragmentation profiles with diagnostic ions for the indicated SPMs identified in (C). (F) Left: PCA score plot. Red denotes +ADA for 1 hour; yellow, coagulation for 1 hour; green, coagulation for 24 hours; blue, +ADA for 24 hours. […]

[2] = system: prostaglandin, thromboxane and SPM production in human whole blood; assay: LM metabololipidomics of human whole blood during coagulation in the presence of indomethacin; format: cell-based; conditions: mean of six donors; for LM concentration Avg, Indomethacin t = 0 h: 0 h after coagulation in the presence of indomethacin; for LM concentration Avg, Indomethacin t = 0.25 h: 0.25 h after coagulation in the presence of indomethacin; for LM concentration Avg, Indomethacin t = 0.5 h: 0.5 h after coagulation in the presence of indomethacin; for LM concentration Avg, Indomethacin t = 1 h: 1 h after coagulation in the presence of indomethacin; for LM concentration Avg, Indomethacin t = 3 h: 3 h after coagulation in the presence of indomethacin; for LM concentration Avg, Indomethacin t = 6 h: 6 h after coagulation in the presence of indomethacin; for LM concentration Avg, Indomethacin t = 24 h: 24 h after coagulation in the presence of indomethacin
Description: FIG. 8 illustrates SPM formation in human blood clots being regulated by lipoxygenase activity. (A and B) Freshly drawn human peripheral blood (4 ml) was placed in silicone-coated tubes at 37° C. for 24 hours and coagulation was stopped by snap-freezing before LC-MS/MS analysis was performed. Concentrations of total SPMs, prostaglandins, and thromboxanes after 24 hours of coagulation (Coag.) in the presence or absence of (A) 100 μM indomethacin (Indo.) (n=six individual donors), (B) 500 nM celecoxib (CLX) or 20 μM BAI (n=three individual donors). Data are means±SEM; *P<0.05 for +BAI vs. Coag; ****P<0.0001 for +Indo vs. Coag. using ratio t-test.
Human whole blood was transferred in 4-ml aliquots to negatively charged, silicone-coated 10-ml tubes (BD) without anticoagulant. For experiments with heparin, the heparinized blood was placed in 15-ml polypropylene tubes before incubation at 37° C. For LM profiling at designated times, all samples were immediately subjected to a workup procedure by which whole blood was snap-frozen in a dry ice/isopropanol bath and were returned to room temperature (×3 cycles) before undergoing centrifugation at 100,000 g at 4° C. Supernatants (and clots for select experiments; see FIG. 6) were collected and were subjected to LC-MS/MS LM metabololipidomics.
To obtain a complete blood profile of eicosanoids and SPMs each sample was subjected to a procedure involving snap-freezing of whole blood that was then thawed to room temperature three times and centrifuged at 100,000 g at 4 °C for 30 min before undergoing solid-phase extraction (SPE). Internal standards including d8-5-HETE, d5-RvD2, d5-LXA4, d4-LTB4, and d4-PGE2 (500 pg each; Cayman Chemical) were added together with four volumes of methanol to facilitate protein precipitation. […] Before elution, LM bound to the SPE matrix were neutralized with ddH2O. Methyl formate fractions from the SPE were brought to dryness under a gentle stream of nitrogen and resuspended in 1:1 methanol:water before injection into a liquid chromatography-tandem mass spectrometry system consisting of a QTrap 5500 (AB Sciex) equipped with a Shimadzu LC-20AD HPLC (Tokyo, Japan). A Poroshell 120 EC-18 column (100 mm×4.6 mm×2.7 μm; Agilent Technologies) was kept in a column oven maintained at 50° C., and lipid mediators (LMs) were eluted in a gradient of methanol/water/acetic acid from 55:45:0.01 (v/v/v) to 100:0:0.01 at a flow rate of 0.5 ml/min. To monitor and quantify the amounts of lipid mediators of interest, multiple reaction monitoring (MRM) was used with MS/MS matching signature ion fragments for each molecule (at least six diagnostic ions; ˜0.1 pg limits of detection as described previously (15)]. PCA was performed as described previously (15) with SIMCA software, version 13.0.3. Calibration curves were obtained daily from authentic (nonsynthetic) standards and matrix suppression for each targeted LM in snap-frozen blood, and supernatants determined and used for recovery and quantitation.

[3] = Murine peritonitis and hemorrhagic exudates, LM profiling; format: in vivo; conditions: mice, zymosan plus thrombin i.p., 4 hours

In the case of `CC/C=C\C[C@H](O)/C=C\C=C\C/C=C/C=C/C=C/C(O)[C@@H](O)CCC(=O)O` (stereo in doubt) [RvD4, resolvin D4], the “greatest concentrations of D-series resolvins in the ADA-treated samples” value (“greatest concentrations” for short) [1] is reported as 447 pM, the “LM concentration Avg, Indomethacin t = 0 h” value [2] is reported as “— ((—) denotes concentrations <0.1 pg/ml)” and the “LM concentration Avg, Indomethacin t = 0.25 h” value [2] is reported as “— ((—) denotes concentrations <0.1 pg/ml)”. The “LM concentration Avg, Indomethacin t = 0.5 h” value [2] was “— ((—) denotes concentrations <0.1 pg/ml)”, the “LM concentration Avg, Indomethacin t = 1 h” value [2] was “— ((—) denotes concentrations <0.1 pg/ml)” and the “LM concentration Avg, Indomethacin t = 3 h” value [2] was “— ((—) denotes concentrations <0.1 pg/ml)”. The “LM concentration Avg, Indomethacin t = 6 h” value [2] was “— ((—) denotes concentrations <0.1 pg/ml)” and the “LM concentration Avg, Indomethacin t = 24 h” value [2] was “— ((—) denotes concentrations <0.1 pg/ml)”.
For `CC/C=C\C/C=C\C[C@H](O)\C=C/C=C/C=C/[C@H](O)C/C=C\CCC(=O)O` [Maresin 1, maresin 1 (7R, 14S-dihydroxy-docosa-4Z, 8E, 10E, 12Z, 16Z, 19Z-hexaenoic acid)], the “abundance in hemorrhagic exudates compared to sham saline alone” value (from here on “abundance … compared to sham saline alone”) [3] was “statistically significantly increased in abundance”, the “LM concentration Avg, Indomethacin t = 0 h” value [2] was 1.0 pg/mL and the “LM concentration Avg, Indomethacin t = 0.25 h” value [2] was 1.9 pg/mL. For the same molecule, the “LM concentration Avg, Indomethacin t = 0.5 h” value [2] was 0.4 pg/mL, the “LM concentration Avg, Indomethacin t = 1 h” value [2] was 0.6 pg/mL and the “LM concentration Avg, Indomethacin t = 3 h” value [2] was 1.4 pg/mL. The “LM concentration Avg, Indomethacin t = 6 h” value [2] was 1.8 pg/mL and the “LM concentration Avg, Indomethacin t = 24 h” value [2] was 4.8 pg/mL.
With `CC/C=C\C[C@H](O)/C=C/C=C\C=C\C=C\[C@@H](O)[C@@H](O)C/C=C\CCC(=O)O` [RvD1, Resolvin D1 (7S, 8R, 17S-trihydroxy-docosa-4Z, 9E, 11E, 13Z, 15E, 19Z-hexaenoic acid)] the “abundance … compared to sham saline alone” value [3] was “statistically significantly increased in abundance”, the “LM concentration Avg, Indomethacin t = 0 h” value [2] was “— ((—) denotes concentrations <0.1 pg/ml)” and the “LM concentration Avg, Indomethacin t = 0.25 h” value [2] was 0.4 pg/mL. The “LM concentration Avg, Indomethacin t = 0.5 h” value [2] was 0.5 pg/mL, the “LM concentration Avg, Indomethacin t = 1 h” value [2] was 0.6 pg/mL and the “LM concentration Avg, Indomethacin t = 3 h” value [2] was 1.8 pg/mL. For the same molecule, the “LM concentration Avg, Indomethacin t = 6 h” value [2] was 5.6 pg/mL and the “LM concentration Avg, Indomethacin t = 24 h” value [2] was 34.2 pg/mL.
In the case of `CC/C=C\C[C@H](O)/C=C/C=C\C[C@@H](O)/C=C/C=C/C=C\[C@@H](O)CCC(=O)O` [RvD3, Resolvin D3 (4S, 11R, 17S-trihydroxy-docosa-5Z, 7E, 9E, 13Z, 15E, 19Z-hexaenoic acid)], the “greatest concentrations” value [1] is reported as 150 pM, the “LM concentration Avg, Indomethacin t = 0 h” value [2] is reported as “— ((—) denotes concentrations <0.1 pg/ml)” and the “LM concentration Avg, Indomethacin t = 0.25 h” value [2] is reported as “— ((—) denotes concentrations <0.1 pg/ml)”. For the same molecule, the “LM concentration Avg, Indomethacin t = 0.5 h” value [2] was “— ((—) denotes concentrations <0.1 pg/ml)”, the “LM concentration Avg, Indomethacin t = 1 h” value [2] was “— ((—) denotes concentrations <0.1 pg/ml)” and the “LM concentration Avg, Indomethacin t = 3 h” value [2] was “— ((—) denotes concentrations <0.1 pg/ml)”. For the same molecule, the “LM concentration Avg, Indomethacin t = 6 h” value [2] was “— ((—) denotes concentrations <0.1 pg/ml)” and the “LM concentration Avg, Indomethacin t = 24 h” value [2] was “— ((—) denotes concentrations <0.1 pg/ml)”.
With `CC/C=C\C[C@H](O)/C=C/C=C\C/C=C\C=C\[C@@H](O)C/C=C\CCC(=O)O` [RvD5, Resolvin D5 (7S, 17S-dihydroxy-docosa-4Z, 8E, 10Z, 13Z, 15E, 19Z-hexaenoic acid)] the “abundance … compared to sham saline alone” value [3] was “statistically significantly increased in abundance”, the “LM concentration Avg, Indomethacin t = 0 h” value [2] was 1.2 pg/mL and the “LM concentration Avg, Indomethacin t = 0.25 h” value [2] was 1.6 pg/mL. For the same molecule, the “LM concentration Avg, Indomethacin t = 0.5 h” value [2] was 2.1 pg/mL, the “LM concentration Avg, Indomethacin t = 1 h” value [2] was 2.6 pg/mL and the “LM concentration Avg, Indomethacin t = 3 h” value [2] was 7.0 pg/mL. For the same molecule, the “LM concentration Avg, Indomethacin t = 6 h” value [2] was 10.1 pg/mL and the “LM concentration Avg, Indomethacin t = 24 h” value [2] was 14.7 pg/mL.
With `CC/C=C\C[C@H](O)/C=C/C=C\C/C=C\C/C=C\C=C\[C@@H](O)CCC(=O)O` [RvD6, resolvin D6] the “greatest concentrations” value [1] was 304 pM, the “LM concentration Avg, Indomethacin t = 0 h” value [2] was “— ((—) denotes concentrations <0.1 pg/ml)” and the “LM concentration Avg, Indomethacin t = 0.25 h” value [2] was “— ((—) denotes concentrations <0.1 pg/ml)”. For the same molecule, the “LM concentration Avg, Indomethacin t = 0.5 h” value [2] was “— ((—) denotes concentrations <0.1 pg/ml)”, the “LM concentration Avg, Indomethacin t = 1 h” value [2] was “— ((—) denotes concentrations <0.1 pg/ml)” and the “LM concentration Avg, Indomethacin t = 3 h” value [2] was “— ((—) denotes concentrations <0.1 pg/ml)”. The “LM concentration Avg, Indomethacin t = 6 h” value [2] was “— ((—) denotes concentrations <0.1 pg/ml)” and the “LM concentration Avg, Indomethacin t = 24 h” value [2] was “— ((—) denotes concentrations <0.1 pg/ml)”.
For `CC[C@@H](O)/C=C/C=C\C[C@@H](O)/C=C/C=C/C=C\[C@@H](O)CCCC(=O)O` [RvE1, Resolvin E1 (5S, 12R, 18R-trihydroxy-eicosa-6Z, 8E, 10E, 14Z, 16E-pentaenoic acid)], the “abundance … compared to sham saline alone” value [3] was “statistically significantly increased in abundance”, the “LM concentration Avg, Indomethacin t = 0 h” value [2] was “— ((—) denotes concentrations <0.1 pg/ml)” and the “LM concentration Avg, Indomethacin t = 0.25 h” value [2] was “— ((—) denotes concentrations <0.1 pg/ml)”. The “LM concentration Avg, Indomethacin t = 0.5 h” value [2] was “— ((—) denotes concentrations <0.1 pg/ml)”, the “LM concentration Avg, Indomethacin t = 1 h” value [2] was “— ((—) denotes concentrations <0.1 pg/ml)” and the “LM concentration Avg, Indomethacin t = 3 h” value [2] was 0.3 pg/mL. The “LM concentration Avg, Indomethacin t = 6 h” value [2] was 0.8 pg/mL and the “LM concentration Avg, Indomethacin t = 24 h” value [2] was 4.5 pg/mL.
